Experimental data: article doi:10.1101/2020.01.07.897124 (bioRxiv, 2020)
These are yes or no findings as the source states them, for the method shown. Some results given as binding are weak or reduced against the parent protein; the word gives no strength. Where a sequence is shown, tags or fusion partners need not be part of it.

Biological target: N-terminal GFP-tagged N-terminal truncated hSOAT1 (66-550) (human) (UniProt P35610)
Assay: SEC

B1: N-terminal GFP-tagged N-terminal truncated hSOAT1 (66-550) (domain or fragment, UniProt P35610 66-550)
chain: MKEVGSHFDDFVTNLIEKSASLDNGGCALTTFSVLEGEKNNHRAKDLRAPPEQGKIFIARRSLLDELLEVDHIRTIYHMFIALLILFILSTLVVDYIDEGRLVLEFSLLSYAFGKFPTVVWTWWIMFLSTFSVPYFLFQHWATGYSKSSHPLIRSLFHGFLFMIFQIGVLGFGPTYVVLAYTLPPASRFIIIFEQIRFVMKAHSFVRENVPRVLNSAKEKSSTVPIPTVNQYLYFLFAPTLIYRDSYPRNPTVRWGYVAMKFAQVFGCFFYVYYIFERLCAPLFRNIKQEPFSARVLVLCVFNSILPGVLILFLTFFAFLHCWLNAFAEMLRFGDRMFYKDWWNSTSYSNYYRTWNVVVHDWLYYYAYKDFLWFFSKRFKSAAMLAVFAVSAVVHEYALAVCLSFFYPVLFVLFMFFGMAFNFIVNDSRKKPIWNVLMWTSLFLGNGVLLCFYSQEWYARQHCPLKNPTFLDYVRPRSWTCRYVF
**Q.** How did the binding turn out when B1 was run?
**A.** binds
